Measurements reported in PubChem BioAssay AID686938 (Drosophila RNAi Screening Center, 2013)

- Test: 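Fly genes required for calcium entry once internal stores are emptied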 (primary screen)
- Cell system: Drosophila S2R+ cells
- Reagent: long dsRNA against Drosophila genes, about 0.25 µg dsRNA per well, roughly 10,000 cells
- Time to read-out: 5 days of knock-down before the calcium assay
- Challenge: thapsigargin (SERCA pump blocker) to empty calcium stores; entry signal taken 4 min after adding it
- Measured: 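Per-well fluo-4 fluorescence in two replicates, unnormalised, measured in resting cells and 4 min after store depletion by the SERCA blocker thapsigargin; ratio of the two present in few wells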
- Reading the numbers: calcium entry signal: higher = stronger calcium signal after store depletion; resting calcium signal: higher = higher resting calcium signal
- Hit rule: 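Called when the plate z-score of the entry-to-rest ratio, mean of duplicates, falls below −3; wells with low overall dye signal (Fmax z below −2) or more than five off-targets excluded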
- Meaning of the calls: active = strongly reduced calcium entry; inactive = no strong reduction
The screen tested about 23,000 reagents; below is a random part of those that have a named target and a result. In the full data, 75 (0.33%) got an active call. 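Raw plate signals without normalisation; calls rest on plate z-scores that were not deposited; ratio present for only 364 wells.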 Entries without a mark were called inactive. Names joined by + are all predicted targets of the reagent. No sequences are given here. Not stated in the record: the dose of the treatment.

target gene | DRSC id | calcium entry signal, replicate 1 (fluorescence units) | calcium entry signal, replicate 2 (fluorescence units) | resting calcium signal, replicate 1 (fluorescence units) | resting calcium signal, replicate 2 (fluorescence units)
Topors (GeneID 37188) | DRSC06531 | 2.42e7 | 1.88e7 | 1.13e7 | 1.00e7
CG17026 (GeneID 39739) | DRSC10237 | 2.03e7 | 4.69e7 | 1.23e7 | 2.34e7
CG13085 (GeneID 35219) | DRSC02189 | 4.34e7 | 5.22e7 | 2.19e7 | 2.19e7
Ubc6 (GeneID 40610) | DRSC12370 | 1.75e7 | 1.98e7 | 1.13e7 | 1.16e7
app (GeneID 39399) | DRSC09159 | 5.16e7 | 5.21e7 | 2.70e7 | 2.28e7
app (GeneID 39399) | DRSC10246 | 3.03e7 | 3.61e7 | 1.48e7 | 1.54e7
app (GeneID 39399) | DRSC10526 | 3.06e7 | 4.64e7 | 1.64e7 | 1.99e7
Taf13 (GeneID 35297) | DRSC02106 | 3.61e7 | 4.49e7 | 1.92e7 | 1.96e7
rgn (GeneID 40368) | DRSC11609 | 3.43e7 | 3.30e7 | 1.64e7 | 2.43e7
CG11786 (GeneID 42998) | DRSC14389 | 4.33e7 | 5.88e7 | 2.06e7 | 2.41e7
CG30472 (GeneID 246634) | DRSC22245 | 3.71e7 | 3.80e7 | 1.78e7 | 1.89e7
CG9497 (GeneID 33884) | DRSC03234 | 5.10e7 | – | 2.58e7 | –
side-VI (GeneID 4379854) | DRSC12828 | 2.80e7 | 4.46e7 | 1.44e7 | 2.08e7
side-VI (GeneID 4379854) | DRSC12830 | 3.32e7 | 4.67e7 | 1.71e7 | 2.24e7
side-VI (GeneID 4379854) | DRSC14920 | 3.77e7 | 3.76e7 | 1.91e7 | 1.82e7
side-VI (GeneID 4379854) | DRSC15624 | 3.98e7 | 4.30e7 | 1.96e7 | 2.19e7
side-VI (GeneID 4379854) | DRSC23088 | 5.88e7 | 3.69e7 | 2.93e7 | 1.47e7
Tango5 (GeneID 326232) | DRSC18023 | 4.39e7 | 4.03e7 | 1.95e7 | 1.92e7
CG13694 (GeneID 33169) | DRSC00363 | 4.44e7 | 4.83e7 | 2.05e7 | 2.17e7
CG1801 (GeneID 33104) | DRSC20556 | 4.53e7 | 4.63e7 | 2.43e7 | 1.94e7
S-Lap8 (GeneID 36844) | DRSC06870 | 3.78e7 | 4.63e7 | 1.77e7 | 2.36e7
S-Lap8 (GeneID 36844) | DRSC21372 | 3.73e7 | 4.24e7 | 2.04e7 | 1.81e7
mod(mdg4) + pre-mod(mdg4)-U | DRSC13476 | 3.99e7 | 2.83e7 | 1.99e7 | 1.46e7
CG12912 (GeneID 36075) | DRSC06227 | 1.98e7 | 4.12e7 | 1.28e7 | 1.87e7
Naus (GeneID 37076) | DRSC06011 | 3.24e7 | 3.27e7 | 1.47e7 | 1.62e7
Naus (GeneID 37076) | DRSC06469 | 5.09e7 | 5.42e7 | 2.47e7 | 2.66e7
Pi4KIIalpha (GeneID 40670) | DRSC12322 | 2.78e7 | 3.12e7 | 1.28e7 | 1.48e7
Pi4KIIalpha (GeneID 40670) | DRSC12323 | 5.53e7 | 5.06e7 | 2.30e7 | 2.21e7
sky (GeneID 35359) | DRSC02383 | 3.26e7 | – | 1.61e7 | –
sky (GeneID 35359) | DRSC03214 | 2.98e7 | – | 1.36e7 | –
sky (GeneID 35359) | DRSC03215 | 4.64e7 | 4.94e7 | 2.33e7 | 2.06e7
GstD10 (GeneID 59240) | DRSC15346 | 3.15e7 | 2.93e7 | 1.64e7 | 1.62e7
l(2)34Fd (GeneID 34839) | DRSC01911 | 2.37e7 | – | 1.41e7 | –
dgt2 (GeneID 34610) | DRSC02548 | 2.28e7 | 1.57e7 | 1.20e7 | 8.80e6

The list goes on (7 carried over from the part before).
target gene | DRSC id | calcium entry signal, replicate 1 (fluorescence units) | calcium entry signal, replicate 2 (fluorescence units) | resting calcium signal, replicate 1 (fluorescence units) | resting calcium signal, replicate 2 (fluorescence units)
Pi4KIIalpha (GeneID 40670) | DRSC12323 | 5.53e7 | 5.06e7 | 2.30e7 | 2.21e7
sky (GeneID 35359) | DRSC02383 | 3.26e7 | – | 1.61e7 | –
sky (GeneID 35359) | DRSC03214 | 2.98e7 | – | 1.36e7 | –
sky (GeneID 35359) | DRSC03215 | 4.64e7 | 4.94e7 | 2.33e7 | 2.06e7
GstD10 (GeneID 59240) | DRSC15346 | 3.15e7 | 2.93e7 | 1.64e7 | 1.62e7
l(2)34Fd (GeneID 34839) | DRSC01911 | 2.37e7 | – | 1.41e7 | –
dgt2 (GeneID 34610) | DRSC02548 | 2.28e7 | 1.57e7 | 1.20e7 | 8.80e6
CG43366 (GeneID 35519) | DRSC04857 | 4.24e7 | 5.71e7 | 2.24e7 | 2.38e7
CG43366 (GeneID 35519) | DRSC04864 | 4.49e7 | 5.35e7 | 2.36e7 | 2.24e7
VhaM9.7-a (GeneID 38521) | DRSC08289 | 3.17e7 | 2.81e7 | 1.73e7 | 1.45e7
Or24a (GeneID 33623) | DRSC00768 | 2.39e7 | 2.43e7 | 1.27e7 | 1.19e7
Mybbp1A (GeneID 31010) | DRSC18788 | 2.99e7 | 3.66e7 | 1.45e7 | 1.84e7
lncRNA:CR43421 (GeneID 12798123) | DRSC05819 | 2.65e7 | 6.33e7 | 1.25e7 | 3.03e7
Ir94d (GeneID 7354412) | DRSC21568 | 4.79e7 | 2.91e7 | 2.53e7 | 1.35e7
DCTN6-p27 (GeneID 35195) | DRSC02609 | 4.38e7 | 4.55e7 | 2.27e7 | 2.30e7
DCTN6-p27 (GeneID 35195) | DRSC22810 | 3.15e7 | 3.44e7 | 1.68e7 | 1.76e7
CG17707 (GeneID 5740408) | DRSC20650 | 4.56e7 | 3.91e7 | 2.33e7 | 1.77e7
ND-30 (GeneID 38378) | DRSC08243 | 3.62e7 | 2.88e7 | 2.29e7 | 1.07e7
CG11999 (GeneID 40637) | DRSC12185 | 3.31e7 | 2.65e7 | 1.80e7 | 1.42e7
ATP7 (GeneID 32142) | DRSC19819 | 2.99e7 | 3.94e7 | 1.52e7 | 1.87e7
CG13310 (GeneID 39007) | DRSC09981 | 2.98e7 | 4.04e7 | 1.41e7 | 1.56e7
beat-IIIc (GeneID 35037) | DRSC02438 | 4.06e7 | 2.42e7 | 1.72e7 | 1.19e7
beat-IIIc (GeneID 35037) | DRSC02949 | 4.47e7 | 3.08e7 | 1.95e7 | 1.36e7
sls (GeneID 44013) | DRSC08528 | 4.26e7 | 3.56e7 | 1.95e7 | 1.90e7
sls (GeneID 44013) | DRSC08540 | 1.86e7 | 2.58e7 | 1.12e7 | 1.31e7
sls (GeneID 44013) | DRSC08670 | 2.98e7 | 3.31e7 | 1.42e7 | 1.51e7
Karybeta3 (GeneID 40581) | DRSC12355 | 2.75e7 | 3.44e7 | 1.41e7 | 2.38e7
cyst (GeneID 35237) | DRSC02023 | 3.48e7 | – | 1.80e7 | –
epsilonTry (GeneID 49080) | DRSC07611 | 2.68e7 | 4.01e7 | 1.41e7 | 1.70e7
Lgr1 (GeneID 42133) | DRSC16675 | 2.40e7 | 3.03e7 | 2.81e7 | 1.30e7
PolD2 (GeneID 38228) | DRSC08147 | 3.17e7 | 3.31e7 | 1.63e7 | 1.80e7
